Results: patent US8084644B2, “Iminopropene compound and use thereof” (Sumitomo Chemical Company, Limited, priority 2005, dated 2011)
Some of these results come from one statement about several compounds together. Some ranges recur; such a range may be that of the whole group of compounds.

What was measured:
Assay type in all cases: in vivo
Nilaparvata lugens = assay: Test Example 4: spray test on brown rice planthopper on rice; settings: 500 ppm, first to second-instar larvae on rice, after 6 days
Blattalla germanica = assay: Test Example 6: filter paper test on German cockroach; settings: 500 ppm, male adult German cockroach, after 6 days
Aphis gossypii = assay: Test Example 3: spray test on cotton aphids on cucumber; settings: 500 ppm, first-instar larvae on cucumber, after 6 days
Spodoptela litura = assay: Test Example 1: artificial diet test on tobacco cutworm larvae; settings: 500 ppm, fourth-instar larvae, after 6 days
Adoxophyes orana = assay: Test Example 2: artificial diet test on summer fruit tortrix larvae; settings: 500 ppm, first-instar larvae, after 7 days
Musca domestica = assay: Test Example 5: filter paper test on houseflies; settings: 500 ppm, female adult houseflies, after 24 hours
Plutella xylostella = assay: Test Example 9: cabbage test on diamondback, second-instar; settings: 500 ppm, 25° C., after five days
Culex pipiens pallens = assay: Test Example 7: water treatment test on common mosquito larvae; settings: concentration of active ingredient 3.5 ppm in water; last-instar larvae; after one day

Row | Compound | index number (surviving rate based on untreated check) (Nilaparvata lugens) | index number (mortality) (Blattalla germanica) | index number (surviving rate based on untreated check) (Aphis gossypii) | index number (mortality) (Spodoptela litura) | index number (mortality) (Adoxophyes orana) | index number (mortality) (Musca domestica) | index number (mortality) (Plutella xylostella) | index number (mortality) (Culex pipiens pallens)
1 | 3-Methylphenyl N-(3,4-dimethylphenyl)-3-phenylthioacrylimidate [(203)] | 3 (surviving rate 1 to 10%) | 4 (mortality 100%) | 3 (surviving rate 1 to 10%) | – | – | – | – | –
2 | Clc1ccc(SC(C=CSc2ccccc2)=Nc2ccccc2)cc1 [(2), 4-Chlorophenyl N-phenyl-3-(phenylthio)thioacrylimidate] | 3 (surviving rate 1 to 10%) | 4 (mortality 100%) | 3 (surviving rate 1 to 10%) | 3 (mortality 80 to 99%) | 3 (mortality 80 to 99%) | 3 (mortality 70 to 99%) | 3 (mortality 80 to 99%) | 4 (mortality 91 to 100%)
3 | Clc1cccc(SC(C=CSc2ccccc2)=Nc2ccccc2)c1 [(3), 3-Chlorophenyl N-phenyl-3-(phenylthio)thioacrylimidate] | 3 (surviving rate 1 to 10%) | 4 (mortality 100%) | 3 (surviving rate 1 to 10%) | 3 (mortality 80 to 99%) | 3 (mortality 80 to 99%) | 3 (mortality 70 to 99%) | 3 (mortality 80 to 99%) | 4 (mortality 91 to 100%)
4 | Clc1cc(Cl)cc(SC(C=CSc2ccccc2)=Nc2ccccc2)c1 [(16), 3,5-Dichlorophenyl N-phenyl-3-(phenylthio)thioacrylimidate] | 3 (surviving rate 1 to 10%) | 4 (mortality 100%) | 3 (surviving rate 1 to 10%) | 3 (mortality 80 to 99%) | 3 (mortality 80 to 99%) | 3 (mortality 70 to 99%) | 3 (mortality 80 to 99%) | 4 (mortality 91 to 100%)
5 | FC(F)(F)Oc1ccc(SC(C=CSc2ccccc2)=Nc2ccccc2)cc1 [(30), 4-Trifluoromethoxyphenyl N-phenyl-3-(phenylthio)thioacrylimidate] | 3 (surviving rate 1 to 10%) | 4 (mortality 100%) | 3 (surviving rate 1 to 10%) | 3 (mortality 80 to 99%) | 3 (mortality 80 to 99%) | 3 (mortality 70 to 99%) | 3 (mortality 80 to 99%) | 4 (mortality 91 to 100%)
6 | C(=CC(=Nc1ccccc1)Sc1ccccc1)Oc1ccccc1 [(35), Phenyl N-phenyl-3-(phenoxy)thioacrylimidate] | 3 (surviving rate 1 to 10%) | 4 (mortality 100%) | 3 (surviving rate 1 to 10%) | 3 (mortality 80 to 99%) | 3 (mortality 80 to 99%) | 3 (mortality 70 to 99%) | 3 (mortality 80 to 99%) | 4 (mortality 91 to 100%)
7 | C(=CC(=Nc1ccncc1)Oc1ccccc1)Sc1ccccc1 [(47), Phenyl N-(4-pyridyl)-3-(phenylthio)acrylimidate] | 3 (surviving rate 1 to 10%) | 4 (mortality 100%) | 3 (surviving rate 1 to 10%) | 3 (mortality 80 to 99%) | 3 (mortality 80 to 99%) | 3 (mortality 70 to 99%) | 3 (mortality 80 to 99%) | 4 (mortality 91 to 100%)
8 | Cc1cccc(N=C(C=COc2ccccc2)Oc2ccccc2)c1 [(69), Phenyl N-(3-methylphenyl)-3-(phenoxy)acrylimidate] | 3 (surviving rate 1 to 10%) | 4 (mortality 100%) | 3 (surviving rate 1 to 10%) | 3 (mortality 80 to 99%) | 3 (mortality 80 to 99%) | 3 (mortality 70 to 99%) | 3 (mortality 80 to 99%) | 4 (mortality 91 to 100%)
9 | Fc1ccc(N=C(C=COc2ccccc2)Oc2ccccc2)cc1 [(75), Phenyl N-(4-fluorophenyl)-3-(phenoxy)acrylimidate] | 3 (surviving rate 1 to 10%) | 4 (mortality 100%) | – | 3 (mortality 80 to 99%) | 3 (mortality 80 to 99%) | 3 (mortality 70 to 99%) | 3 (mortality 80 to 99%) | 4 (mortality 91 to 100%)
10 | C#Cc1ccc(N=C(C=COc2ccccc2)Oc2ccccc2)cc1 [(156), Phenyl N-(4-ethynylphenyl)-3-(phenoxy)acrylimidate] | 3 (surviving rate 1 to 10%) | 4 (mortality 100%) | – | 3 (mortality 80 to 99%) | 3 (mortality 80 to 99%) | 3 (mortality 70 to 99%) | 3 (mortality 80 to 99%) | 4 (mortality 91 to 100%)
11 | C(=CC(=Nc1ccc(C2CCCCC2)cc1)Oc1ccccc1)Sc1ccccc1 [(175), Phenyl N-(4-cyclohexylphenyl)-3-(phenylthio)acrylimidate] | 3 (surviving rate 1 to 10%) | 4 (mortality 100%) | – | 3 (mortality 80 to 99%) | – | – | 3 (mortality 80 to 99%) | 4 (mortality 91 to 100%)
12 | CC(C)(C)c1ccc(SC(C=CSc2ccccc2)=Nc2ccccc2)cc1 [(177), 4-(1,1-Dimethylethyl)phenyl N-phenyl-3-(phenylthio)thioacrylimidate] | 3 (surviving rate 1 to 10%) | 4 (mortality 100%) | 3 (surviving rate 1 to 10%) | 3 (mortality 80 to 99%) | – | 3 (mortality 70 to 99%) | 3 (mortality 80 to 99%) | 4 (mortality 91 to 100%)
13 | C(=CC(=Nc1ccccc1)SC1CCCCC1)Sc1ccccc1 [(187), Cyclohexyl N-phenyl-3-(phenylthio)thioacrylimidate] | 3 (surviving rate 1 to 10%) | 4 (mortality 100%) | 3 (surviving rate 1 to 10%) | – | – | – | – | 4 (mortality 91 to 100%)
14 | CC(C)SC(C=COc1ccccc1)=Nc1ccccc1 [(198), 1-Methylethyl N-phenyl-3-(phenoxy)thioacrylimidate] | 3 (surviving rate 1 to 10%) | 4 (mortality 100%) | 3 (surviving rate 1 to 10%) | 3 (mortality 80 to 99%) | – | 3 (mortality 70 to 99%) | – | –
15 | Cc1ccc(N=C(C=CSc2ccc(C)cc2C)SCC(C)C)cc1 [(451), Isobutyl 3-(2,4-dimethylphenylthio)-N-(4-methylphenyl)thioacrylimidate] | 3 (surviving rate 1 to 10%) | 4 (mortality 100%) | 3 (surviving rate 1 to 10%) | – | – | – | 3 (mortality 80 to 99%) | –
16 | C(=CC(=Nc1ccsc1)Oc1ccccc1)Oc1ccccc1 [(490), Phenyl 3-phenoxy-N-(3-thienyl)acrylimidate] | 3 (surviving rate 1 to 10%) | 4 (mortality 100%) | – | – | – | 3 (mortality 70 to 99%) | – | –
17 | CCC(C)OC(C=CSc1ccc(F)cc1)=Nc1ccc(C)cc1 (stereo not shown) [(513), 1-Methylpropyl 3-(4-fluorophenylthio)-N-(4-methylphenyl)acrylimidate] | 3 (surviving rate 1 to 10%) | 4 (mortality 100%) | 3 (surviving rate 1 to 10%) | 3 (mortality 80 to 99%) | 3 (mortality 80 to 99%) | – | 3 (mortality 80 to 99%) | 4 (mortality 91 to 100%)
18 | CC(C)=CCC/C(C)=C/COC(C=CSc1ccc(F)cc1)=Nc1ccc(C)cc1 [(599), Geranyl 3-(4-fluorophenylthio)-N-(4-methylphenyl)acrylimidate] | 3 (surviving rate 1 to 10%) | 4 (mortality 100%) | 3 (surviving rate 1 to 10%) | 3 (mortality 80 to 99%) | 3 (mortality 80 to 99%) | – | 3 (mortality 80 to 99%) | 4 (mortality 91 to 100%)
